Laboratory results taken from PMC12431657, “Discovery and mechanistic insights of dibenzoylmethane as a broad spectrum inhibitor of coronavirus” (PLOS Pathogens, 2025).
Structures can show the parent of a compound that is named as a salt. Where two headings read alike, the source gives them in different places. The campaign covered roughly 3,300 compounds. About 60 (2%) showed an effect of 50% or more. This is one part of the list.

Test system: HCoV-OC43
Design: species or system RD; HTS, protection from HCoV-OC43 induced cell death, luminescent cell viability (CellCounting-Lite 2.0), inhibition rate
Conditions: 24 h post infection, 1 h compound pre-incubation, 10 µM, inhibitor

SMILES | OC43 Inhibition rate [%] | OC43 Inhibition rate (OC43 Inhibition rate, 24 h) [%]
C/C(=C\CC[C@@H](C)[C@H]1CC[C@@]2(C)C3=CC[C@H]4C(C)(C)[C@@H](O)CC[C@]4(C)C3=CC[C@]12C)CO [Ganoderol B] | -0.3 | –
COc1c(O)c2c(=O)cc(OC)c3c4c(OC)cc(=O)c5c(O)c(OC)c6c(c(c1CC(C)=C6C(C)=O)c23)c54 [Hypocrellin B] | -0.3 | –
CC(C)=CCC/C(C)=C/CC/C(C)=C/CC/C(C)=C/CO [Geranylgeraniol] | 44.1 | –
O=C(O)CCCCC1CCSS1 (stereo not drawn) [α-Lipoic Acid] | 0.7 | –
COc1cc(/C=C/c2cc(O)cc(O)c2)ccc1O [Isorhapontigenin] | 0.2 | –
C[C@H]1[C@H](C)CC[C@]2(C(=O)O)CC[C@]3(C)C(=CC[C@@H]4[C@@]5(C)CC[C@@H](O)C(C)(C)[C@@H]5CC[C@]43C)[C@H]12 [3-Epiursolic Acid] | -1.3 | –
O=C(/C=C/C=C/c1ccc2c(c1)OCO2)N1CCCCC1 [Piperine] | 14.7 | –
O=c1c2ccccc2nc2n1CCc1c-2[nH]c2ccccc12 [Rutaecarpine] | 2.9 | –
C[C@@H]1O[C@@H](OC[C@H]2O[C@@H](Oc3c(-c4ccc(O)cc4)oc4cc(O)cc(O)c4c3=O)[C@H](O)[C@@H](O)[C@@H]2O)[C@H](O)[C@H](O)[C@H]1O [Nicotiflorin] | -0.2 | –
O=C(O)c1ccco1 [2-Furoic acid] | 3.6 | –
CC(C)[C@H](N)C(=O)O [L-Valine] | -0.6 | –
CC(=O)O[C@@H]1C[C@@H]2CC[C@@]1(C)C2(C)C [(-)-Bornyl acetate] | 0.5 | –
OC[C@H]1O[C@@](CO)(O[C@H]2O[C@H](CO)[C@@H](O)[C@H](O)[C@H]2O)[C@@H](O[C@H]2O[C@H](CO)[C@@H](O)[C@H](O)[C@H]2O)[C@@H]1O [D-(+)-Melezitose] | 0.9 | –
C[S+]([O-])CC[C@H](N)C(=O)O (some centres unmarked) [Methionine sulfoxide] | – | 2.3
COc1ccc([C@H]2O[C@@H](c3ccc(OC)c(OC)c3)[C@H](C)[C@H]2C)cc1OC [Veraguensin] | 19.7 | –
CC1(C)[C@H](C(=O)O)CC[C@]1(C)C(=O)O [(-)-Camphoric acid] | -0.3 | –
COc1ccc(-c2cc(=O)c3c(O)c(OC)c(O)cc3o2)cc1 [Pectolinarigenin] | 13.3 | –
COc1ccc2c(c1)OC[C@@H](c1cc(O)c(OC)c(OC)c1O)C2 [Colutehydroquinone] | 2.6 | –
CC1OCCC1=O (centres unmarked) [2-Methyltetrahydrofuran-3-one] | 0.2 | –

SMILES | OC43 Inhibition rate [%] | OC43 Inhibition rate (OC43 Inhibition rate, 24 h) [%]
C[C@H](CCC(=O)O)[C@H]1CC[C@H]2[C@@H]3[C@H](O)C[C@@H]4C[C@H](O)CC[C@]4(C)[C@H]3C[C@H](O)[C@]12C [Cholic acid (sodium)] | – | -0.3
O=C(O)C[C@H](C(=O)O)[C@H]1c2c(cc(O)c(O)c2O)C(=O)O[C@@H]1C(=O)O [Chebulic acid] | -0.4 | –
C[C@H](O)[C@H](O)C1=Nc2c(nc(N)[nH]c2=O)NC1 [7,8-Dihydro-L-biopterin] | -1.3 | –
CC(=O)O[C@H]1CC[C@]2(C)[C@H]3CC=C4[C@@H]5[C@@H](C)[C@H](C)CC[C@]5(C(=O)O)CC[C@@]4(C)[C@]3(C)CC[C@H]2C1(C)C [Ursolic acid acetate] | 19.4 | –
COc1cc2c(cc1OC)[C@H]1Cc3ccc(OC)c(OC)c3CN1CC2 [D-Tetrahydropalmatine] | 2 | –
COc1ccc(-c2cc(=O)c3c(OC)c(OC)c(OC)cc3o2)cc1OC [Sinensetin] | 5 | –
CC(C)=CCC/C(C)=C/Cc1c(O)c(CC=C(C)C)c2c(c1O)C(=O)C1=C[C@@H]3C[C@H]4C(C)(C)O[C@@](C/C=C(/C)C(=O)O)(C3=O)[C@@]14O2 [Gambogenic acid] | -2.2 | –
C[C@H](CCC(=O)O)[C@H]1CC[C@H]2[C@@H]3[C@H](O)C[C@@H]4C[C@H](O)CC[C@]4(C)[C@H]3C[C@H](O)[C@]12C [Cholic acid] | – | 1.6
COc1ccc(CCO[C@@H]2O[C@H](CO[C@@H]3O[C@H](CO)[C@H](O)[C@H](O)[C@H]3O)[C@@H](OC(=O)/C=C/c3ccc(O)c(OC)c3)[C@H](O[C@@H]3O[C@@H](C)[C@H](O)[C@@H](O)[C@H]3O)[C@H]2O)cc1O [Jionoside B1] | -0.2 | –
COc1cc2c(cc1OC)-c1c(C)c3ccc(OC)c(OC)c3c[n+]1CC2 [Dehydrocorydaline (chloride)] | – | 0.6
CCCCCCCCCCCCCCCCCCCCC [Heneicosane] | -0.3 | –
CC(C)=CCc1cc2c(cc1O)oc(=O)c1c3ccc(O)cc3oc21 [Psoralidin] | 0 | –
Cc1nc2ccccc2o1 [2-Methylbenzoxazole] | -0.1 | –
C[C@H](CCC(=O)O)[C@H]1CC[C@H]2[C@@H]3CC[C@@H]4C[C@H](O)CC[C@]4(C)[C@H]3CC[C@]12C [Lithocholic acid] | 1.2 | –
O=C(O)/C=C/c1cnc[nH]1 [Urocanic acid] | -0.3 | –
COc1cc(C[C@@H](C)[C@@H](C)Cc2ccc(O)c(OC)c2)ccc1O [Dihydroguaiaretic acid] | 0.8 | –
C=C1CC[C@H]2O[C@]2(C)CC[C@@H]2[C@@H]1CC2(C)C [Caryophyllene oxide] | -0.3 | –
O=C(O)CCCC[C@@H]1SC[C@@H]2NC(=O)N[C@@H]21 [Biotin] | 0 | –
COc1c2c(cc3oc(C)cc(=O)c13)O[C@H](C(C)(C)O)C2 [5-O-Methylvisamminol] | 1.8 | –
CC1(C)CC[C@]2(C(=O)O)[C@H](O)C[C@]3(C)C(=CC[C@@H]4[C@@]5(C)CC[C@H](O)[C@@](C)(C=O)[C@@H]5CC[C@]43C)[C@@H]2C1 [Quillaic acid] | 0.8 | –

SMILES | OC43 Inhibition rate [%] | OC43 Inhibition rate (OC43 Inhibition rate, 24 h) [%]
COc1ccc(C[C@@H]2COc3c(C)c(O)c(C)c(O)c3C2=O)cc1 [Methylophiopogonanone B] | -2.7 | –
NCCc1ccc(O)cc1 [Tyramine] | -0.5 | –
COc1ccc(/C=C/C(=O)c2ccc(OC)c3c2OC(C)(C)C=C3)cc1 [Millepachine] | 23.1 | –
Nc1ncnc2c1ncn2[C@@H]1O[C@H](CO)[C@@H](O)[C@H]1OP(=O)(O)O [Adenosine-2'-monophosphate] | 0.6 | –
CC1(C)CCC2=C(O1)c1ccccc1C(=O)C2=O [β-Lapachone] | -1.8 | –
CC(C)(O)[C@H]1CC[C@@](C)([C@H]2[C@@H](O)C[C@@]3(C)[C@@H]4C[C@H](O)[C@H]5C(C)(C)[C@@H](O)CC[C@@]56C[C@@]46CC[C@]23C)O1 [Cyclogalegenin] | 8.4 | –
CC(C)=CCC[C@@](C)(O)[C@H]1CC[C@]2(C)[C@@H]1[C@H](O)C[C@@H]1[C@@]3(C)C[C@@H](O)[C@H](O[C@@H]4O[C@H](CO)[C@@H](O)[C@H](O)[C@H]4O[C@@H]4O[C@H](CO)[C@@H](O)[C@H](O)[C@H]4O)C(C)(C)[C@@H]3CC[C@]12C [Gypenoside LI] | 0 | –
CC[C@H](O)C(=O)O [(S)-2-Hydroxybutanoic acid] | 0 | –
CCCCCCCCCCCCCCCCCCCCC(=O)O [Heneicosanoic acid] | 0 | –
CC(=O)O[C@@]12CO[C@@H]1C[C@@H](O)[C@@]1(C)C(=O)[C@H](O)C3=C(C)[C@@H](OC(=O)[C@H](O)[C@@H](NC(=O)c4ccccc4)c4ccccc4)C[C@@](O)([C@@H](OC(=O)c4ccccc4)[C@H]21)C3(C)C [7-Epi 10-desacetyl paclitaxel] | 0.2 | –
C/C=C/c1ccc(OC)c(OC)c1 [Methyl isoeugenol] | -3.3 | –
C[C@@H]1O[C@@H](O[C@H]2[C@H](Oc3c(-c4ccc(O)cc4)oc4cc(O)cc(O)c4c3=O)O[C@H](CO)[C@@H](O)[C@@H]2O)[C@H](O)[C@H](O)[C@H]1O [Kaempferol 3-neohesperidoside] | 1.4 | –
CC1(C)CC[C@]2(C(=O)O)CC[C@]3(C)C(=CC[C@@H]4[C@@]5(C)C[C@H](O)[C@H](O)[C@@](C)(C(=O)O)[C@@H]5CC[C@]43C)[C@@H]2C1 [Medicagenic acid] | -0.5 | –
COc1cc(/C=C/C(=O)CC(=O)/C=C/c2ccc(O)c(OC)c2)ccc1O [Curcumin] | -0.2 | –
O=C1CCCCO1 [Tetrahydro-2H-pyran-2-one] | -0.5 | –
C[C@H](CC[C@@H](O[C@@H]1O[C@H](CO)[C@@H](O)[C@H](O)[C@H]1O)C(C)(C)O)[C@H]1CC[C@@]2(C)[C@@H]3CC=C4[C@@H](CC[C@H](O[C@@H]5O[C@H](CO)[C@@H](O)[C@H](O)[C@H]5O)C4(C)C)[C@]3(C)[C@H](O)C[C@]12C [Mogroside IIe] | -0.2 | –
O=C(O)C1CCCCN1O (centres unmarked) [N-Hydroxypipecolic acid] | -0.7 | –
O=C(O)c1ccc(CO)o1 [5-Hydroxymethyl-2-furancarboxylic acid] | -1.1 | –
O=C(O)CCCC(=O)C(=O)O [Oxoadipic acid] | 1.6 | –
